Source: PubChem BioAssay AID1487 (National Center for Advancing Translational Sciences (NCATS), 2009)
This is one part of the list. The main result of the screen is listed elsewhere. These columns were measured beside it and carry no call. Compounds called inactive in the main read-out are mostly missing here. Words in brackets tell the shape of the fitted curve; partial curves, single points and poor fits give uncertain potencies.

Experiment: qHTS Assay for Modulators of Lamin A Splicing
Settings: HeLa LMNA splicing GFP/RFP minigene ratio, 48 h
Procedure, shortened: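 Read-out is the ratio of GFP to DsRed2 object intensity, acquired by 488 nm laser-scanning cytometry on HeLa lamin A-EGFP minigene reporter cells. Compound incubation 48 hrs at 37 °C in Opti-MEM with 2% FBS; DMSO 0.5% final.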

[1] = measured here: RFP viability control channel
[2] = measured here: GFP splicing reporter channel

| SMILES | AC50 [1] | AC50 [2] |
| --- | --- | --- |
| CCSC(N)=Nc1ccc(C(F)(F)F)cc1 | 0.02 µM [rising, full curve, poor fit] |  |
| COc1ccccc1CNc1ncnc2c1cnn2-c1ccc(C)cc1 | 15.8 µM [rising, single point] |  |
| O=C1NC(=S)/C(=C\c2ccc(-c3ccccc3Cl)o2)S1 |  | 35.5 µM [falling, single point] |
| COc1ccccc1C(=O)N1c2ccccc2Sc2ccccc21 | 35.5 µM [rising, single point] | 22.4 µM [rising, single point] |
| Cc1ccc(-n2nc(C)c3c(C)cc(=O)n(CC(=O)Nc4cccc(C)c4C)c32)cc1 |  | 5.01 µM [rising, partial curve] |
| Cn1c(Cn2c(=O)sc3ccccc32)nnc1SCc1ccccc1 | 35.5 µM [rising, single point] | 31.6 µM [rising, single point] |
| CC[C@@H]1Cc2cc(O)ccc2C2=C1c1ccc(O)cc1C[C@H]2CC | 20 µM [falling, partial curve, poor fit] | 20 µM [falling, partial curve] |
| CCCS(=O)(=O)c1c(S(=O)(=O)CCC)c2c(N)cccn2c1C(=O)c1ccc(OC)cc1 | 0.0316 µM [falling, full curve, poor fit] | 0.562 µM [falling, full curve, poor fit] |
| CCN(CC)S(=O)(=O)c1ccc(N2CCN(S(=O)(=O)c3ccc4c(c3)OCCO4)CC2)nc1 | 14.1 µM [rising, single point] |  |
| Cc1ccc(OCC(=O)Nn2c(C)nc3ccccc3c2=O)c(C(C)C)c1 | 7.08 µM [rising, partial curve] | 2.82 µM [rising, full curve] |
| C=CCn1c(C)cc(C(=O)CN2NS(=O)(=O)c3ccccc3C2=O)c1C | 1.12 µM [falling, full curve, poor fit] |  |
| Cc1ccc(OCCSc2ncnc3nc[nH]c23)cc1 | 22.4 µM [rising, single point] |  |
| COc1ccccc1C(=O)N1CCN(c2cccc(C(F)(F)F)c2)CC1 | 15.8 µM [rising, partial curve, poor fit] |  |
| Cc1cc(C)c2cc(CN(Cc3nnnn3Cc3ccc(F)cc3)C3CCCC3)c(=O)[nH]c2c1 | 20 µM [falling, partial curve, poor fit] | 3.55 µM [falling, partial curve, poor fit] |
| Cc1ccc2nc(NC(=O)CSc3nccn3Cc3ccc(F)cc3)sc2c1 |  | 0.0355 µM [rising, full curve, poor fit] |

Pulled by structure from the entries so far:

| SMILES | AC50 [1] | AC50 [2] |
| --- | --- | --- |
| CC[C@@H]1Cc2cc(O)ccc2C2=C1c1ccc(O)cc1C[C@H]2CC | 20 µM [falling, partial curve, poor fit] | 20 µM [falling, partial curve] |
| Cc1ccc(-n2nc(C)c3c(C)cc(=O)n(CC(=O)Nc4cccc(C)c4C)c32)cc1 |  | 5.01 µM [rising, partial curve] |
